{"source": "paper PMC8599861", "about": "“Structures of prokaryotic ubiquitin-like protein Pup in complex with depupylase Dop reveal the mechanism of catalytic phosphate formation” (Nature Communications, 2021)", "biological_target": "T1, Prokaryotic ubiquitin-like protein Pup from Corynebacterium glutamicum with C-terminal glutamate (Corynebacterium glutamicum) (UniProt Q8NQE0)", "T1 sequence": "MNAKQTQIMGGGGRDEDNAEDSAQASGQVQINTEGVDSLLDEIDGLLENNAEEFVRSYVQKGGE", "assay": "ITC; 25 °C, MicroCal iTC200; 150 µM CgluDop or 200 µM CgluDopGS injected into 15 or 20 µM CgluPupE in the cell; 50 mM Tris-HCl pH 8.0, 300 mM NaCl, 20 mM MgCl2; 1:1 binding model; both purified", "note": "Results are given in words; binding and its absence hold for the method and conditions named. Binding can be weak; no strength is given."}
{"substance": "Depupylase Dop from Corynebacterium glutamicum, wild type (enzyme)", "values": [{"measurement": "binding", "value": "binds"}]}
